{"source": "PubChem BioAssay AID1347423", "about": "(Functional Genomics Laboratory (NCATS/FGL), 2020)", "note": "In all, about 52,000 sequences went through this assay and about 210 (0.4%) were called active.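 Rule for the calls: active = gene whose silencing raises cell survival under the drug, median off-target-corrected z-score across its silencing RNAs 2 or more; inactive = the rest.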 The list shows a part of the results.", "data": [{"assay": "Resistance to Poly (ADP-Ribose) Polymerase inhibitor: Gene Identification via Genome-wide siRNA Screen", "details": "mouse BRCA2 R2336H ES cells, olaparib, CellTiter-Glo viability; stronger effect = higher value", "how_it_was_run": "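Mouse BRCA2 R2336H ES cells were reverse-transfected with siRNA (20 nM final), treated at 48 h with 500 nM olaparib, and read by CellTiter-Glo after 72 h. Scores: MAD-based z per siRNA, median per gene, seed off-target correction.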", "values": [{"sequence": "GGAAUGUGGACAGUGGACATT against 4632423N09Rik", "z-score": "inactive: -2.06"}, {"sequence": "GCCGAGAGGGAUGUGUAUATT against Psmb1", "z-score": "inactive: -2.29"}, {"sequence": "GCAACCCUUUAAUGAAAAATT against AI591476", "z-score": "inactive: -0.704"}, {"sequence": "GGGUGUGACGAUUCUCACCTT against Olfr800", "z-score": "inactive: 1.1"}, {"sequence": "GGUGAUGCCUUAUUUUGAATT against 2310035K24Rik", "z-score": "inactive: -0.548"}, {"sequence": "GCAUAAUUCUAAAGACGGGTT against Zfp143", "z-score": "inactive: -0.383"}, {"sequence": "CGAAAACGUGAAAUAUCUCTT against Gpd1l", "z-score": "inactive: -0.379"}, {"sequence": "GGAAUUGGUUCAUUUGGUUTT against 1300004G08Rik", "z-score": "inactive: 1.3"}, {"sequence": "GAUGGACCAGUACAGAAUUTT against 4632417K02", "z-score": "inactive: 0.843"}, {"sequence": "GGUGCUCUGCAUAUUCUGGTT against Olfr654", "z-score": "inactive: 1.37"}, {"sequence": "GCUAAAGCAGCCAAGUAUGTT against Eln", "z-score": "inactive: 1.01"}, {"sequence": "GGUGUCAAUAACAUAUCAGTT against Nav1", "z-score": "inactive: -0.0933"}, {"sequence": "GGCUGGUUUAUUCUGGUAUTT against Als2cr2", "z-score": "inactive: -0.945"}, {"sequence": "GGUUAAAUACAAGUCACAATT against AW210596", "z-score": "inactive: -0.679"}, {"sequence": "GCACCUCCACCAAAAAAACTT against Cd52", "z-score": "inactive: 0.0509"}, {"sequence": "CGAGAUGGAAUAUCGCACATT against Cyyr1", "z-score": "inactive: 1.25"}, {"sequence": "GGGUCAGAUUGCUAUCCUCTT against AW556797", "z-score": "inactive: 1.05"}, {"sequence": "GCAAGAACUGAAUCUAGUGTT against 2410002I01Rik", "z-score": "inactive: 0.0476"}, {"sequence": "GCUAGGCACAAGGUUUUUUTT against Rem1", "z-score": "inactive: -0.354"}, {"sequence": "GGGCCUUUGGAUGUUGCUATT against Abcc10", "z-score": "inactive: 1.24"}, {"sequence": "GGGACAAGUGAUAAAUUUGTT against BC033609", "z-score": "inactive: 0.279"}, {"sequence": "GGAGAUGUUAAUUGAAGUCTT against Ap3b1", "z-score": "inactive: 1.12"}, {"sequence": "GCUGUCACACCUAGUGUCATT against Olfr1457", "z-score": "inactive: -0.0756"}, {"sequence": "GGUCCUUCAGUGUAAAUCUTT against Cbr2", "z-score": "inactive: 0.0774"}, {"sequence": "GGAAAGCAAGUUCACAGUGTT against Olfr352", "z-score": "inactive: -0.528"}, {"sequence": "GGGCUUUUUUCUUAAUGCCTT against Pramel3", "z-score": "inactive: 0.51"}, {"sequence": "GGCAGUAGUUCAGUUGAUATT against A230106N23", "z-score": "inactive: -0.409"}, {"sequence": "GGCAGAUGGUAUCAGCUGUTT against Cd164l1", "z-score": "inactive: 1.13"}, {"sequence": "GGAACAUUUACAACAUCCATT against Itgb2", "z-score": "inactive: 1.91"}, {"sequence": "GGAUUUAACCUCUCCAACUTT against Olfr1030", "z-score": "inactive: 0.318"}, {"sequence": "CCGAGCAGUAUGUGAACGUTT against Ela1", "z-score": "inactive: -1.29"}, {"sequence": "GCUACUGUGUCGGUCACAUTT against Olfr514", "z-score": "inactive: -1.5"}, {"sequence": "GCUGUCAUCCCACUCAAACTT against 0710005M24Rik", "z-score": "inactive: 0.32"}, {"sequence": "GCUGGAGGUAUUCAACAUGTT against Gorasp1", "z-score": "inactive: -0.566"}, {"sequence": "GCUUUGCUAAGCCUAAAAGTT against BC038156", "z-score": "inactive: 0.773"}, {"sequence": "GGAUCUCCAAGUUAAAGAATT against Pigo", "z-score": "inactive: 0.695"}, {"sequence": "CCUCCCUAAUGGUCCAUUATT against Cyp2j13", "z-score": "inactive: -1.11"}, {"sequence": "GGAAAGACUUGCAUUUUCUTT against 1700010I14Rik", "z-score": "inactive: 0.141"}, {"sequence": "GGGCAUUUUGAGAAUAUGATT against 4930441O14Rik", "z-score": "inactive: 0.927"}, {"sequence": "GCAUGGAGUCUGGUAUCUGTT against Olfr504", "z-score": "inactive: 0.231"}, {"sequence": "GGAGCCAAGAGUGAAGAACTT against Tbp", "z-score": "inactive: -2.93"}, {"sequence": "CCAAAGUGGUUUUCAUCCUTT against Hps3", "z-score": "inactive: -1"}, {"sequence": "GGAAGGUGGCAAGGUAUCUTT against D030060O14Rik", "z-score": "inactive: -2.74"}, {"sequence": "GGCUGUGCUCCUUGUUAGUTT against Olfr1143", "z-score": "inactive: -0.685"}, {"sequence": "GGAAGGGUCACUACAGGCATT against Rnf31", "z-score": "inactive: -0.393"}, {"sequence": "GGCCAGCUACAAACUGCCUTT against 1810015A11Rik", "z-score": "inactive: -0.22"}, {"sequence": "GGGCAGAACUGCAUGAGAATT against Acp1", "z-score": "inactive: 0.568"}, {"sequence": "CCCUAAGACGAAGGAAAUGTT against 1110004D19Rik", "z-score": "inactive: -2.09"}, {"sequence": "GGACCAUCCUACAUCGGUCTT against Fpgs", "z-score": "inactive: 0.054"}, {"sequence": "GGGUGCUUGCCAUUAACCCTT against Galnt14", "z-score": "inactive: 0.166"}, {"sequence": "CCUCUACAACCUAAUUUAUTT against Abcd1", "z-score": "inactive: 0.486"}, {"sequence": "GGAAGCACAUAGAAGCCAATT against Defb11", "z-score": "inactive: -0.065"}, {"sequence": "CCAUGAGUGACCAAACAGGTT against Snx22", "z-score": "inactive: 0.528"}, {"sequence": "GCGCAUUGUGCAGGAUAAATT against Tnpo2", "z-score": "inactive: -0.144"}, {"sequence": "GACUGCUAAACAAUAUGCUTT against 4930506M07Rik", "z-score": "inactive: 0.608"}, {"sequence": "CAAACCCAUGUUCUAAAUGTT against Oog3", "z-score": "inactive: 0.339"}, {"sequence": "CCAGCAUGCGUGAUGUCUATT against Gdi1", "z-score": "inactive: -2.17"}, {"sequence": "GGGAGAGAGAAAAAGAAAATT against Park7", "z-score": "inactive: -1.45"}, {"sequence": "GAUCCUCACGAAAUAGGUATT against GA_x5J8B7TQSKC-412-5", "z-score": "inactive: -0.191"}, {"sequence": "GGUUACUGCUACCUAUAACTT against Ttid", "z-score": "inactive: -0.133"}, {"sequence": "CGCAGUCCUGUCAGACUUUTT against AJ430384", "z-score": "inactive: 1.23"}, {"sequence": "GCACCUCUAUGAGAGGACATT against Anxa8", "z-score": "inactive: 0.362"}, {"sequence": "GGCAAAUUCGAAAUAGACATT against Evx2", "z-score": "inactive: 0.624"}, {"sequence": "GGCCUGUCCAGUGAUGAUGTT against 1810007M14Rik", "z-score": "inactive: -0.84"}, {"sequence": "CCCAUAAGUAUUAAAGUGGTT against Acdc", "z-score": "inactive: 1.08"}, {"sequence": "GGAAAAUGUCACUUUAUGGTT against Fcgr1", "z-score": "inactive: 0.116"}]}]}
